Results reported in patent US7053194.
These are yes or no findings as the source states them, for the method shown. In cells and extracts the contact can be indirect. Some results given as binding are weak or reduced against the parent protein; the word gives no strength.

Biological target: temperature-sensitive p53 (Valine 135 allele) of murine Va15 cells (UniProt P02340)
Assay: reciprocal co-immunoprecipitation from Va15 cells with mAb 421, mSin3a western

- binding: binds
B1: mSin3a (endogenous, murine Va15 cells) (protein, UniProt Q60520 1-1274, looked up)
chain: MKRRLDDQESPVYAAQQRRIPGSTEAFSHQHRVLAPAPPVYEAVSETMQSATGIQYSVAPNYQVSAVPQSSGSHGPAIAAVHSSHHHPTAVQPHGGQVVQSHAHPAPPVAPVQGQQQFQRLKVEDALSYLDQVKLQFGSQPQVYNDFLDIMKEFKSQSIDTPGVISRVSQLFKGHPDLIMGFNTFLPPGYKIEVQTNDMVNVTTPGQVHQIPTHGIQPQPQPPPQHPSQPSSQSAPTPAQPAPQPTAAKVSKPSQLQAHTPASQQTPPLPPYASPRSPPVQPHTPVTISLGTAPSLQNNQPVEFNHAINYVNKIKNRFQGQPDIYKAFLEILHTYQKEQRNAKEAGGNYTPALTEQEVYAQVARLFKNQEDLLSEFGQFLPDANSSVLLSKTTAEKVDSVRNDHGGTVKKPQLNNKPQRPSQNGCQIRRHSGTGATPPVKKKPKLMSLKESSMADASKHGVGTESLFFDKVRKALRSAEAYENFLRCLVIFNQEVISRAELVQLVSPFLGKFPELFNWFKNFLGYKESVHLESFPKERATEGIAMEIDYASCKRLGSSYRALPKSYQQPKCTGRTPLCKEVLNDTWVSFPSWSEDSTFVSSKKTQYEEHIYRCEDERFELDVVLETNLATIRVLEAIQKKLSRLSAEEQAKFRLDNTLGGTSEVIHRKALQRIYADKAADIIDGLRKNPSIAVPIVLKRLKMKEEEWREAQRGFNKVWREQNEKYYLKSLDHQGINFKQNDTKVLRSKSLLNEIESIYDERQEQATEENAGVPVGPHLSLAYEDKQILEDAAALIIHHVKRQTGIQKEDKYKIKQIMHHFIPDLLFAQRGDLSDVEEEEEEEMDVDEATGAPKKHNGVGGSPPKSKLLFSNTAAQKLRGMDEVYNLFYVNNNWYIFMRLHQILCLRLLRICSQAERQIEEENREREWEREVLGIKRDKSDSPAIQLRLKEPMDVDVEDYYPAFLDMVRSLLDGNIDSSQYEDSLREMFTIHAYIAFTMDKLIQSIVRQLQHIVSDEVCVQVTDLYLAENNNGATGGQLNSQTSRSLLESAYQRKAEQLMSDENCFKLMFIQSQGQVQLTVELLDTEEENSDDPVEAERWSDYVERYMSSDTTSPELREHLAQKPVFLPRNLRRIRKCQRGREQQEKEGKEGNSKKTMENVESLDKLECRFKLNSYKMVYVIKSEDYMYRRTALLRAHQSHERVSKRLHQRFQAWVDKWTKEHVPREMAAETSKWLMGEGLEGLVPCTTTCDTETLHFVSINKYRVKYGTVFKAP
